Measurements from publication doi:10.1101/2025.02.28.640866.
Results are given in words; binding and its absence hold for the method and conditions named. Binding seen in cells or lysates may run through a third protein. Some binding calls cover weakened binding; strength is not graded here. Sequences can lack the tags named with a protein.

Molecular target: T1, UNC-112::YFP-N (C. elegans) (UniProt Q18685)
T1 sequence: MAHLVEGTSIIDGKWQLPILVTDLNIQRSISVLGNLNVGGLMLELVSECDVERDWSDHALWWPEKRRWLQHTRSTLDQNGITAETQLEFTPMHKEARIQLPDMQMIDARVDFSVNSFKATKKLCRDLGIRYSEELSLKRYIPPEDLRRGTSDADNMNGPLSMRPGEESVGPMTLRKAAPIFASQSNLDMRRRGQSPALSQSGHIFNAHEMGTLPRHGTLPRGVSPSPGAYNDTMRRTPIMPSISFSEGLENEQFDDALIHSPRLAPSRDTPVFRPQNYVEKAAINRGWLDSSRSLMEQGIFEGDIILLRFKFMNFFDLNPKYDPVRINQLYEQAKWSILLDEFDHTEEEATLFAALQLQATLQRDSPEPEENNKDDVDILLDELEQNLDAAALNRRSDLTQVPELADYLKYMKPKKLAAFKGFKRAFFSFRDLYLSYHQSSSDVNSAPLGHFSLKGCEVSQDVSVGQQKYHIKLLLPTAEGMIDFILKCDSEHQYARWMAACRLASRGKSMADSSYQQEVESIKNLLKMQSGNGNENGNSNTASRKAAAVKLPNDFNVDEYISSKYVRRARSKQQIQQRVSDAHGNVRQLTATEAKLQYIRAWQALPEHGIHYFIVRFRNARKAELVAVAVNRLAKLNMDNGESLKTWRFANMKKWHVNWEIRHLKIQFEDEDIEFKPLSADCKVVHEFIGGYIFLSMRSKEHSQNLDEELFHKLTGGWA
Experiment: split reporter

B1: PAT-4::YFP-C (protein, UniProt Q9TZC4 1-466)
chain: MSLSTHYHAHKPNVPIIMEDVFGWVREGNAFQVRVWLDDHEHDLNVGDDHAFSLLHWAAKGGHVAIAEMLLSRGARVNSTNMGDDTSLHLAAAHGHRQIVVKLLSRKADVNATNEHGMTPLHYACFWGYEQIAEDLISCGAAVNVCNKKGMTPLDVCQPMCKNTILEIAQEHGQSPNDRVPFKDTTWKGTKSRTRDATLSRYTGVDVSSLNLITKIAESHSGELWRGKWQGNDIVARILNVQEVTARISRDFQTEFPALRIFAHPNICAVLAAANQPPNLVIISQYMPFGSLYNVLHEQSSVVIDHGQAVRFALDIARGMSYLHSLDPMLLRFYLSSKHVVVDEELTAKLSMADTKFSFQEVGKAYSPAWMSPEALSRAPEDLNIRAADMWSFAILLWELNTREVPFSDLPPMECGMKIALEGLRVHIPPGIARNMNRLMNICMNEDPGRRPNFDQIIPILERMIL
  binding: binds
